From PubChem BioAssay AID1487 (National Center for Advancing Translational Sciences (NCATS), 2009)
About 25 (0.01%) of roughly 200,000 compounds were called active. The inconclusive results got no clear call from the source; some entries with a clear call stand among them for comparison. The call rests on the fitted dose curve; in most records, active means well fitted inhibition curve with a large enough effect in the signal ratio, with a control signal flat (not every such curve was filed as active); inconclusive means small, poorly fitted or top-dose-only effect, or effect the other way, or a change in a side signal; inactive means flat fitted curve, though single readings scatter; the % refers to the signal ratio. Where the call is inconclusive, the potency comes from a doubtful curve fit.

Assay: qHTS Assay for Modulators of Lamin A Splicing
Conditions: HeLa LMNA splicing GFP/RFP minigene ratio, 48 h; ratio change, negative = inhibition: at 46.1 µM (top of the series) unless noted
How it was run: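 Read-out is the ratio of GFP to DsRed2 object intensity, acquired by 488 nm laser-scanning cytometry on HeLa lamin A-EGFP minigene reporter cells. Compound incubation 48 hrs at 37 °C in Opti-MEM with 2% FBS; DMSO 0.5% final.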
On the % scale 0 is the no-effect control and ±100 the full control effect; potency means the concentration at half of the fitted maximal effect.

| SMILES | Potency | ratio change, negative = inhibition |
| --- | --- | --- |
| CN1C(=O)c2ccccc2Sc2ccc(NC(=O)Cc3ccc(Cl)cc3)cc21 | inconclusive: 4.47 µM [inhibitor, partial curve] |  |
| COC(=O)c1sccc1S(=O)(=O)N1CCN(c2cccc(C)c2)C(C)C1 (centres undefined) |  | inconclusive: -31.3% [at 46 µM] |
| Cc1cc(C)n(CC(=O)N/N=C/c2ccc(C)o2)n1 |  | inactive |
| CCOC(=O)c1cccc(NC(=O)C2COc3ccc(OC)cc3C2)c1 (centres undefined) |  | inconclusive: -14.8% [at 46 µM] |
| COc1ccc(N2CCC(CNC(=O)Nc3ccccc3)C2)cc1 (centres undefined) |  | inactive |
| CCCCc1ccc(NC(=O)Cn2cnc3c(oc4ccccc43)c2=O)cc1 |  | inconclusive: 37.8% [at 46 µM] |
| Cn1c(SCC(=O)Nc2ccc3c(c2)OCCO3)nnc1-c1ccccn1 |  | inactive |
| CC(=O)Nc1ccc(S(=O)(=O)NCCc2csc3nc(-c4ccc(Cl)cc4)nn23)cc1 |  | inactive |
| CCCS(=O)(=O)c1nc(S(=O)(=O)c2ccc(C)cc2)c(NCCN2CCOCC2)s1 |  | inactive |
| CCOP(=O)(OCC)C(NC(=O)Nc1ccc(Cl)c(Cl)c1)c1ccccc1 (centres undefined) |  | inconclusive: -28.5% |
| Cc1ccc(C)c(N2CCN(C(c3ccncc3)c3nnnn3Cc3ccccc3)CC2)c1 (centres undefined) |  | inactive |
| O=C(Nc1ccccc1C(=O)NCCN1CCOCC1)c1ccco1 |  | inactive |
| CCc1cccc(C)c1NC(=O)CSc1nnc(-c2ccco2)n1N |  | inconclusive: 7.97% |
| CCN(CC)C(=O)c1c([N+](=O)[O-])c(C(C)(C)C)nn1C |  | inconclusive: -0.385% |
| CCCCNC(=O)CNC(=O)c1cccs1 |  | inconclusive: 2.62% |
| Oc1c(Br)cc(Br)cc1C=NCc1ccc(F)cc1 |  | inconclusive: -10.2% [at 46 µM] |
| COc1ccccc1CNc1cc(-c2ccccc2Cl)ncn1 |  | inconclusive: -9.02% |
| CCOC(=O)CC(=O)CSc1nc2c(sc(=S)n2-c2ccccc2)c(=O)[nH]1 |  | inconclusive: 0.536% |
| COC(=O)Cn1c(CCS(=O)(=O)c2ccc(C)cc2)nc2ccccc21 |  | inconclusive: -35.1% |
| Cc1ccc([N+](=O)[O-])cc1S(=O)(=O)NCCc1c(C)[nH]c2ccccc12 |  | inactive |
| CN(C)c1ccc(/C=C/C(=O)c2ccccc2O)cc1 |  | inactive: 21.9% [at 9.22 µM] |
| CCOC(=O)c1c(-c2ccc(C)s2)csc1NC(=O)c1ccco1 |  | inactive |
| COC(=O)c1c(NC(=O)/C=C/C(=O)O)sc(C)c1-c1ccc(C(C)C)cc1 | inconclusive: 35.5 µM [rising, single point] |  |
| O=C(CSc1nnnn1-c1ccccc1)N1CCc2ccccc21 |  | inactive |

Three structures out of the list, sorted by molecular weight, descending:

| SMILES | Potency | ratio change, negative = inhibition |
| --- | --- | --- |
| Oc1c(Br)cc(Br)cc1C=NCc1ccc(F)cc1 |  | inconclusive: -10.2% [at 46 µM] |
| CCOC(=O)c1cccc(NC(=O)C2COc3ccc(OC)cc3C2)c1 (centres undefined) |  | inconclusive: -14.8% [at 46 µM] |
| CCCCNC(=O)CNC(=O)c1cccs1 |  | inconclusive: 2.62% |
